According to patent US10413593B2 (priority 2014, dated 2019):

What was measured:
[1] = general procedure: Fmoc solid-phase peptide synthesis; Rink-amide PEG-PS resin, Champion (Biosearch Technologies, 0.28 mmol/g); Rink-amide PS (0.47 mmol/g); Rink-amide PEG-AM; HATU/DIEA with HOBt; DIPC/HOAt for manual couplings; conditions: whole synthesis; for final HPLC purity: Acquity UPLC Waters, BEH300 C4, scale of the general procedure 150 μmol; for isolated yield: scale of the general procedure 150 μmol
[2] = Fmoc solid-phase peptide synthesis; MBHA polystyrene resin; HATU/DIEA with HOBt; DIPC/HOAt for manual couplings; conditions: whole synthesis, scale 0.15 mmol

Row | Substance | final HPLC purity [1] | isolated yield [1] | isolated mass [2]
1 | His^1-D-Ser^2-Gln-Gly-Thr-Phe-Thr-Ser-Asp-pAF^10(γGlu-γGlu-C16)-Ser-Lys-Tyr-Leu-Asp^15-Ala^16-Arg-Ala-Ala-Gln-Asp-Phe^22-Val^23-Gln-Trp^25-Leu-Leu-Asp-Thr-CONH2 | >90% pure | Yield 10% | 
2 | His^1-D-Ser^2-Gln-Gly-Thr-Phe-Thr-Ser-Asp-Lys^10(γGlu-γGlu-C16)-Ser-Lys-Tyr-Leu-Asp-Val-Arg-Ala-Ala-Gln-Asp-Phe^22-Val^23-Gln-Trp-Leu-Leu-Asp-Thr-CONH2 | >90% pure | Yield 20% | 
3 | HsQGTpFFTSDK(γEγEC16)SKYLDERAAQDFVQWLLDT-NH2 | above 90% | 10% | 
4 | HsQGTFTSDK(γEγEC16)SKYLDVRRAQDFVQWLLDT-NH2 | 95% pure | Yield 16% | 
5 | His^1-D-Ser^2-Gln-Gly-Thr-Phe-Thr-Ser-Asp-Lys^10(γGlu-γGlu-C16)-Ser-Lys-Tyr-Leu-Asp-Ala-Arg-Ala-Ala-Gln-Asp-Phe^22-Val^23-Gln-Trp-Leu-Leu-Asp-Thr-CONH2 | 95% pure | Yield 30% | 
6 | His^1-Aib^2-Val-Gly-Thr-Phe-Thr-Ser-Asp-Lys^10(γGlu-γGlu-C16)-Ser-Lys-Tyr-Leu-Asp^15-Aib^16-Arg-Ala-Ala-Gln-Asp-Phe^22-Val^23-Gln-Trp^25-Leu-Nle-Asp-Thr-CONH2 | >90% pure | Yield 20% | 
7 | His^1-D-Ser^2-Gln-Gly-Thr-Phe-Thr-Ser-Asp-Lys^10(γGlu-C16)-Ser-Lys-Tyr-Leu-Asp-Ala-Arg-Ala-Ala-Gln-Asp-Phe^22-Val^23-Gln-Trp-Leu-Leu-Asp-Thr-CONH2 | 95% pure | Yield 21% | 
8 | Ac-His^1-Ala^2-Gln-Gly-Thr-Phe-Thr-Ser-Asp-Lys^10(γGlu-γGlu-C16)-Ser-Lys-Tyr-Leu-Asp^15-Glu^16-Arg-Ala-Ala-Gln-Asp-Phe^22-Val^23-Gln-Trp^25-Leu-Leu-Asp-Thr-CONH2 | >90% pure | Yield 27% | 
9 | His^1-D-Ser-Gln-Gly-Thr-tβP-Thr-Ser-Asp-Lys^10(γGlu-γGlu-C16)-Ser-Lys-Tyr-Leu-Asp^15-Glu^16-Arg-Ala-Ala-Gln-Asp-Phe^22-Val^23-Gln-Trp^25-Leu-Leu-Asp-Thr-CONH2 | >90% pure | Yield 12% | 
10 | His^1-D-Ser^2-Gln-Gly-Thr-Phe-Thr-Ser-Asp-Lys^10(γGlu-γGlu-C16)-Ser-Lys-Tyr-Leu-Glu^15-Ala^16-Arg-Ala-Ala-Gln-Asp-Phe^22-Val^23-Gln-Trp^25-Leu-Leu-Asp-Thr-CONH2 | >90% pure | Yield 20% | 
11 | His^1-D-Ser^2-Gln-Gly-Thr-Phe-Thr-Ser-Asp-Lys^10(γGlu-γGlu-C16)-Ser-Lys-Tyr-Leu-Asp^15-Glu^16-Arg-Ala-Ala-Gln-Asp-Phe^22-Val^23-Gln-Trp^25-Leu-Met2(O)-Asp-Thr-CONH2 | >90% | 15% | 
12 | His^1-amino-1cyclobutane^2-Gln-Gly-Thr-Phe-Thr-Ser-Asp-Lys^10(γGlu-γGlu-C16)-Ser-Lys-Tyr-Leu-Asp^15-Glu^16-Arg-Ala-Ala-Gln-Asp-Phe^22-Val^23-Gln-Trp^25-Leu-Leu-Asp-Thr-CONH2 | >90% | 18% | 
13 | His^1-D-Ser^2-Gln-Gly-Thr-Phe-Thr-Ser-Asp-Lys^10(γGlu-γGlu-C16)-Ser-Leu-Tyr-Leu-Asp-Glu^16-Arg-Ala^18-Ala-Gln-Asp-Phe^22-Val^23-Gln-Trp^25-Leu-Leu-Asp-Thr-NH2 |  |  | 15 mg
